The target in the test is RanQ69L (aa 5–180), GTP-bound, untagged ( (mammalian), UniProt P62826 5-180, Q69L). Briefly: SEC; complexes of Xpo4 variants, RanGTP and a 1.3-molar excess of hypusine-containing eIF5A, retrieved on anti-ZZ beads via tagged RanGTP, eluted by bdSENP1, then Superdex 200 16/60 in 15 mM Tris/HCl pH 7.7, 18 mM NaCl, 2 mM Mg(OAc)2, 2 mM DTT; peak fractions on SDS-PAGE. The settings on record: both partners purified. For orientation: Size exclusion chromatography separates by hydrodynamic size, large species first.

B1: Xpo4 ΔLoopN&C (natural protein)
chain: MMAAALGPPEVIAQLENAAKVLMAPPSMVSNEQRQHAEHIFLSFRKSKSPFAVCRHILETSKVDYVLFQAATAIMEAVVREWVLLEKGSIESLRTFLLTYVLQRPNLQKYVREQILLAVAVIVKRGSLDKSIDCKSIFHEVSQLISSGNPTVQTLACSILTALLSEFSSSSKTSNIGLSMEFHGNCKRVFQEEDLRQIFMLTVGVLQEFSRRENLSAQMSSVFQRYLALANQVLSWNFLPPTESWREALLDSRVMELFFTVHRKIREDSDMAQDSLQCLAQLASLHGPIFPDEGSQVDYLAHFIEGLLNTINGIEIEDSEAVGISSIISNLITVFPRNVLTAIPSELFSSFVNCLTHLTCSFGRSAALEEVLDKDDMVYMEAYDKLLESWLTLVRDDKHFHKGFFTQHAVQVFNSYIQCHLAAPDGTRNLTANGVASREEEEISELQEDDRDQFSDQLASVGMLGRIAAEHCMPLLTSLLEERVTRLHGQLQRHQQQFLASPGSSTIDNKMLDDLYEDIHWLILVTGYLLADDTQGETPLIPPEIMEYSIKHSSEVDINTTLQILGSPGEKASSIPGYSRTDSVIRLLSAVLRVSEVESRAIRADLTHLLSPQMGKDIVWFLKRWAKTYLLVDEKLYDQISLPLSTAFGADTEGSQWIIGYLLQKVISNLSVWSSEQDLANDTVQLLVTLVERRERANLVIQCENWWNLAKQFASRSPPLNFLSSPVQRTLMKALVLGGFAHMDTETKQQYWTEVLQPLQQRFLRVINQENFQQMCQQEEVKQEITATLEALCGIAEATQIDNVAILFNFLMDFLNNCIGLMEVYKNTPETVNLIIEVFVEVAHKQICYLGESKAMHLYEACLTLLQVYSKNNLGRQRIDVTAEEEQYQDLLLIMELLTNLLSKEFIDFSVSAADVVLYGVNLILPLMSQDLLKFPTLCNQYYKLITFICEIFPEKIPQLPEDLFKSLMYSLELGMTSMSSEVCQLCLEALTPLAEQCAKAQETDSPLFLATRHFLKLVFDMLVLQKHNTEMTTAAGEAFYTLVCLHQAEYSELVETLLSSQQDPVIYQRLADAFNKLTASSTPPALDRKQKMAFLKSLEEFMANVGGLLCVK
notes: Xpo4 (exportin 4), mammalian, with loops 241-260 and 931-948 deleted; 1,113 residues printed; Crystallised form; 1,052 of 1,113 residues are modelled in PDB 5DLQ; also called ΔLoopN&C Xpo4 variant; Xpo4 loop deletion mutant; source: E. coli Top10 F', purified (Ni(II) chelate, bdSENP1 elution, Superdex 200, Mono Q); selenomethionine form from BL21; not shown: His14, N-terminal, cleaved; bdSUMO, …
Consider B1, for which the binding result is “binds”.

Values taken from publication PMC4912631, “Structure of the exportin Xpo4 in complex with RanGTP and the hypusine-containing translation factor eIF5A” (Nature Communications, 2016).
